Source: article PMC11304251
These are yes or no findings as the source states them, for the method shown. In cells and extracts the contact can be indirect. These calls come from enrichment with a bait or labelling near it, and not all partners need be listed.

By UniProt entry, the sequences of proteins in these tests, tags left out.
UniProt Q99J83: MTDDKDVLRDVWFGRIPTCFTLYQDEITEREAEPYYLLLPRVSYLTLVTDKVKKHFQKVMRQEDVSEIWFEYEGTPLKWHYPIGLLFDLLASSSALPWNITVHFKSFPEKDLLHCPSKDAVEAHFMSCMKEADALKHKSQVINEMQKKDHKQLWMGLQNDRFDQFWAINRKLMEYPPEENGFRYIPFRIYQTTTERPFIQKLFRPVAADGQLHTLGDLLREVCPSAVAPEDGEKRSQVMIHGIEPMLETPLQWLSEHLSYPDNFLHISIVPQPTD
UniProt Q99K82: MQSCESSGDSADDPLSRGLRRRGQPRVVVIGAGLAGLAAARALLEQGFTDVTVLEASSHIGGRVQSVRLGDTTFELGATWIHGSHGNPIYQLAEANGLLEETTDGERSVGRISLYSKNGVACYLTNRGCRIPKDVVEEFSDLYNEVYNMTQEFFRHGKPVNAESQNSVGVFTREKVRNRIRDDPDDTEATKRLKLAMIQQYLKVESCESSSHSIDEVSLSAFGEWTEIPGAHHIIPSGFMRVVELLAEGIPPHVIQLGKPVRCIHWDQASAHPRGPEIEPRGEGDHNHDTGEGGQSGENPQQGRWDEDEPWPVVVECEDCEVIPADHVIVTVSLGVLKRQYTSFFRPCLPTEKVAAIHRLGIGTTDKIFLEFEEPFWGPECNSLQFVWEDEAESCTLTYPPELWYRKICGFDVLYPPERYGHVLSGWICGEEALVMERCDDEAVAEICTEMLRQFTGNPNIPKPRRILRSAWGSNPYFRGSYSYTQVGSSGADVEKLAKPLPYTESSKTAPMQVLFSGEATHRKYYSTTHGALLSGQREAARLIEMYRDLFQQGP

Biological target: ATG5, wild type, overexpressed (UniProt Q99J83)
Assay: affinity purification with mass spectrometry; mTECs transfected with ATG5 overexpression plasmid; lysate immunoprecipitated with anti-ATG5 antibody; SDS-PAGE, trypsin digest of gel slices, LC-MS/MS

## spermine oxidase (SMOX) (from UniProt Q99K82 1-555) (enzyme)
  binding: binds
